Several values for one entry are separate records, joined by “and”; a condition that tells them apart may be missing. Equal entries are not always repeated. Inconclusive results, whose numbers are uncertain, are shown with a selection of clear calls. For some of these results: Potencies of inconclusive entries are doubtful fits and often do not repeat. Where a structure was tested more than once in an assay, its records may differ in their call. Activity calls are given as the source filed them. Rule for the calls: active = hit-call score of the fitted dose curve at least 0.9, where 1 is the maximum; inconclusive = response in the unintended direction; inactive = score below 0.9.
What was measured:
[1] = Tanguay_ZF_120hpf_SOMI_legacy: (Legacy) Oregon State University Tanguay Lab 120 Hour Post-fertilization zebrafish Assay for Somite Malformation (AID 2283647)
In short: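 Tropical 5D wild-type zebrafish embryos, dechorionated with pronase at 4 hpf, were placed singly at 6 hpf and statically exposed until 120 hpf at 28C in 0.64% DMSO. Somite malformation was scored present/absent by brightfield microscopy versus DMSO.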

Amino acid sequences for entries named in this document (tags omitted). A change or cut given only in a name is not applied to a line headed by its entry.
UniProt P37231: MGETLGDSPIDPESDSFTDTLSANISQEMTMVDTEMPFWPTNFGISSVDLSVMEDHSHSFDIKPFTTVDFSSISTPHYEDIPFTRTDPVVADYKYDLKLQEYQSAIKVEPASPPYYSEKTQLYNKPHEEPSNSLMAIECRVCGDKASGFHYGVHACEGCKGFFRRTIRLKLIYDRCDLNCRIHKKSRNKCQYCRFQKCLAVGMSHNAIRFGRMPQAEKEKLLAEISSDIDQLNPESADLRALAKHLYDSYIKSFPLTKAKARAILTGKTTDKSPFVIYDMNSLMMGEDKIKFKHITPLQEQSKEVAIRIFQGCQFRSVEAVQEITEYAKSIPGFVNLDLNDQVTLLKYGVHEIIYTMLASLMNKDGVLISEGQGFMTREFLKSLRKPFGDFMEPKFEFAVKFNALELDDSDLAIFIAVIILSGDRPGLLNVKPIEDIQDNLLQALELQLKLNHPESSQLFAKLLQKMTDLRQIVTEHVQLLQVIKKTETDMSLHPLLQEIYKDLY
UniProt P10275: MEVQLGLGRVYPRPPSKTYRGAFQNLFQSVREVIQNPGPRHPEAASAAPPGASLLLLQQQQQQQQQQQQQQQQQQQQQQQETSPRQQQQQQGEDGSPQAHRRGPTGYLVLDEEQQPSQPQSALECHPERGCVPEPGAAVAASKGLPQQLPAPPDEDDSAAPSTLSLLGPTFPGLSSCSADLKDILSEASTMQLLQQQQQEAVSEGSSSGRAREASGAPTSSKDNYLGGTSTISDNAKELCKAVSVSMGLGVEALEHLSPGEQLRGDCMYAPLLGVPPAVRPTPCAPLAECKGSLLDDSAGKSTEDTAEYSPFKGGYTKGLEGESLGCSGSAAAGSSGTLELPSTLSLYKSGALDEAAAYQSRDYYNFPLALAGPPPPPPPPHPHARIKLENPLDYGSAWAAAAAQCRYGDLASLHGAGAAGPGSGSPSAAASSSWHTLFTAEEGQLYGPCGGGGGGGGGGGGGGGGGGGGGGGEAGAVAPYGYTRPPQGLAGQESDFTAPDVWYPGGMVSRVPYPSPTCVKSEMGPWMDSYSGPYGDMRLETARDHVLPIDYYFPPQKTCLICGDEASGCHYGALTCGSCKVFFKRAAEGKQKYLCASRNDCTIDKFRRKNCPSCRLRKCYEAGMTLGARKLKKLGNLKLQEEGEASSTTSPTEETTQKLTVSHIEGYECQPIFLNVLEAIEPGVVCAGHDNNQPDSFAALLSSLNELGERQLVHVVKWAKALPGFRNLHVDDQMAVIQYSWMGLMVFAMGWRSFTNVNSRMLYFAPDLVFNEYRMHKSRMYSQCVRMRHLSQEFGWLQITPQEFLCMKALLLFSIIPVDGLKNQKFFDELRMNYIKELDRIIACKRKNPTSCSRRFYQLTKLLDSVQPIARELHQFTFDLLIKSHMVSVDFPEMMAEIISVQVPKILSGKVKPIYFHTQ
UniProt Q92731, whole entry, looked up: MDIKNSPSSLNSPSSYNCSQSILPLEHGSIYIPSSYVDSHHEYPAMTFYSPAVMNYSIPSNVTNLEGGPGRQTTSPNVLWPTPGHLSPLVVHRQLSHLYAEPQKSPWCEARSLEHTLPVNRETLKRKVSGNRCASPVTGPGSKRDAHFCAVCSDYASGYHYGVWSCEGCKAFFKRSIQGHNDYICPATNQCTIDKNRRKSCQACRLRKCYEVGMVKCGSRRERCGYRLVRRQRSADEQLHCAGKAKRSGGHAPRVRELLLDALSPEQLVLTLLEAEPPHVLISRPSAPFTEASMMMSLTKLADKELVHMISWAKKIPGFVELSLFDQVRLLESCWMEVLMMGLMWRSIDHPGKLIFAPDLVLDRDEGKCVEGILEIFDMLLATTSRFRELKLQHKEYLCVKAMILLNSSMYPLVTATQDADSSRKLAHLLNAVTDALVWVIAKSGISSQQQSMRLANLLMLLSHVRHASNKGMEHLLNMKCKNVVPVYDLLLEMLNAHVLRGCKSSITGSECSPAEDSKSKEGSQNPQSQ
UniProt Q9UNQ0: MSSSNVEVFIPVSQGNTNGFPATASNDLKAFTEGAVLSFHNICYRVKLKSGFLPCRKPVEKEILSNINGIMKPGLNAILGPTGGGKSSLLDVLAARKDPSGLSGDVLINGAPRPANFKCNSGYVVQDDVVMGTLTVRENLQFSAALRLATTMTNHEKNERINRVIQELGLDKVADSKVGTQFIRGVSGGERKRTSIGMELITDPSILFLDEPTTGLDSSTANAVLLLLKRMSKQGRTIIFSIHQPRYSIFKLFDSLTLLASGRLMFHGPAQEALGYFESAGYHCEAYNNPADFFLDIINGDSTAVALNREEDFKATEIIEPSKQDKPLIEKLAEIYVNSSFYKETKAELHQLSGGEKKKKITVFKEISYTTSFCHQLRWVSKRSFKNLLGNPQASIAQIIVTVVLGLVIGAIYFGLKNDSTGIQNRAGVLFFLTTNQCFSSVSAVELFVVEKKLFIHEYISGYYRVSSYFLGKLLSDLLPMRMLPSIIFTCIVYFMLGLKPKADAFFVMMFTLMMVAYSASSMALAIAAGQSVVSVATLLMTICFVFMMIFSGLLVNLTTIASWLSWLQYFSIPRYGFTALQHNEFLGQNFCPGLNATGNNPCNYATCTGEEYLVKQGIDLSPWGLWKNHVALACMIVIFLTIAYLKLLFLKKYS
UniProt Q07869: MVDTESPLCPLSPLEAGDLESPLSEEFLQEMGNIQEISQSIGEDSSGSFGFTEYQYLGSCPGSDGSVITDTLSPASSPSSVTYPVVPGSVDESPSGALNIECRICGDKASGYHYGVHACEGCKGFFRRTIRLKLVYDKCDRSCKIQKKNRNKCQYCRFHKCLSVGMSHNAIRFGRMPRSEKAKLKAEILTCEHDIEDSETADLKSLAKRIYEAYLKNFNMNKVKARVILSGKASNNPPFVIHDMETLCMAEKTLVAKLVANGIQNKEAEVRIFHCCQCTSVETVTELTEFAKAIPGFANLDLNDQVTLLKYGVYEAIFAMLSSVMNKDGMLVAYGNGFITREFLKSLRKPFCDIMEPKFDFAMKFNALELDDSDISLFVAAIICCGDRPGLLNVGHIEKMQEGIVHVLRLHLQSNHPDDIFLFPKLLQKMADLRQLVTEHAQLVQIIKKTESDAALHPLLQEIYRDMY

[2] = target: Peroxisome proliferator-activated receptor gamma (Homo sapiens) (UniProt P37231); assay: NVS_NR_hPPARg: NovaScreen (NVS) Nuclear Receptor Binding Assay for human Peroxisome Proliferator-activated Receptor gamma (PPARg) (AID 2283370)
In short: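 Cell-free binding to extracted PPARg protein, read by fluorescence polarization 2 h after dosing; loss of signal relative to DMSO baseline marks displacement. Primary screen in duplicate at 25 uM, actives retested in concentration series.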

[3] = Tanguay_ZF_120hpf_TR_legacy: (Legacy) Oregon State University Tanguay Lab 120 Hour Post-fertilization zebrafish Assay for Touch Response (AID 2283667)
In short: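 Readout is presence or absence of touch response in 120 hpf zebrafish larvae, assessed by brightfield observation after continuous static exposure at 28C. Final vehicle was 0.64% (vol/vol) DMSO.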

[4] = read-out: xenobiotic metabolism (CYP1A1), CYP1A1 (gene 1543); assay: CLD_CYP1A1_24hr: CellzDirect (CLD) Gene Expression Assay for xenobiotic metabolism (CYP1A1) at 24 hours (AID 2283673);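 note: CYP1A1 mRNA level by quantitative nuclease protection with chemiluminescence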
In short: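 Transcript levels were read at 24 h by qNPA chemiluminescence in human liver primary cells. Cells got daily fresh dosing at multiple concentrations (vehicle 0.2% DMSO). Induction fitted upward against DMSO; phase-contrast cytotoxicity annotated.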

[5] = read-out: xenobiotic metabolism (CYP1A1), CYP1A1 (gene 1543); assay: CLD_CYP1A1_48hr: CellzDirect (CLD) Gene Expression Assay for xenobiotic metabolism (CYP1A1) at 48 hours (AID 2283705)
In short: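 CYP1A1 transcript measured by quantitative nuclease protection (chemiluminescent) 48 h after two daily treatments of human hepatocyte cultures, versus 0.2% DMSO. Morphology-based cytotoxicity flags accompany data; two donor preparations used.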

[6] = CCTE_Shafer_MEA_acute_AB: CCTE's Alamar Blue Assay for Cytotoxicity in the Neural Acute Assay, Shafer Lab (AID 2284069);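 note: active compounds lower the viability signal compared with DMSO wells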
In short: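 Metabolic activity in chemically exposed rat cortical neurons (MEA cultures, day 13/15 post-plating) measured via CellTiter Blue resazurin reduction, 544/590 nm fluorescence; fitted relative to DMSO, with signal loss indicating reduced viability.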

[7] = target: AR (gene 367) (UniProt P10275); assay: ACEA_AR_agonist_80hr: ACEA Biosciences xCELLigence Real-Time Cell Analysis on Androgen Receptor Agonism for Proliferation (AID 2283783);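 note: hits increase impedance growth signal above DMSO baseline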
In short: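 Real-time cell-growth kinetics were recorded by electrode impedance in 22Rv1 cells exposed to test chemicals up to 100 uM final; the 80 h timepoint served as the readout, fitted upward relative to DMSO controls, in biological duplicate.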

[8] = CCTE_Shafer_MEA_acute_LDH: CCTE's Lactate Dehydrogenase Assay for Cytotoxicity in the Neural Acute Assay, Shafer Lab (AID 2284086);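 note: active means LDH release rises above DMSO vehicle level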
In short: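 Cytotoxicity readout: spectrophotometric LDH activity in supernatant of rat primary cortical neurons, post-plating day 13 or 15, sampled after 40 min compound exposure; signal gain relative to DMSO baseline.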

[9] = target: Estrogen receptor beta (Homo sapiens) (UniProt Q92731); assay: OT_ER_ERbERb_0480: Odyssey Thera (OT) 8-hour HEK293T Protein-Complementation Assay for Estrogen Receptor-beta/-beta Homodimer (AID 2283357);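 note: active means signal gain over DMSO baseline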
In short: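 Fluorescence gain from complemented reporter fragments on ER-beta LBD homodimer in HEK293T was quantified against DMSO controls after 8 h treatment, fixation in 4% formaldehyde and Draq5 staining.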

[10] = read-out: Broad substrate specificity ATP-binding cassette transporter ABCG2 (Homo sapiens) (UniProt Q9UNQ0); assay: CLD_ABCG2_6hr: CellzDirect (CLD) Gene Expression Assay for ABC Transporter (ABCG2) at 6 hours (AID 2283660)
In short: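 ABCG2 mRNA induction measured by qNPA chemiluminescence in human primary hepatocyte cultures, 6 h post-dose. Chemicals tested at several concentrations against a 0.2% DMSO vehicle; positive-direction fit relative to DMSO.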

[11] = target: human Peroxisome Proliferator-activated Receptor alpha (PPARa), PPARA (gene 5465) (UniProt Q07869); assay: NVS_NR_hPPARa: NovaScreen (NVS) Nuclear Receptor Binding Assay for human Peroxisome Proliferator-activated Receptor alpha (PPARa) (AID 2283359);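 note: activity means loss of TR-FRET signal versus DMSO baseline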
In short: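 One-hour incubation, cell-free extracted protein, TR-FRET binding readout; signal loss vs DMSO scored. Screen: 25 uM duplicates, confirmatory dose series for actives.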

[12] = system: turtle Androgen Receptor (AR), gene 101947425; assay: ATG_trAR_XSP2: Attagene TRANS-FACTORIAL Multi-Species (XSP2) HepG2 Assay for turtle Androgen Receptor (AR) (AID 2283815);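 note: reporter mRNA from a Gal4 chimera of turtle AR measured by RT-PCR; potency for gain of reporter signal meaning activation above DMSO baseline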
In short: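 Reporter transcripts were quantified via RT-PCR and capillary electrophoresis and fitted upward against DMSO. Transiently transfected human HepG2 cells carrying NR-Gal4 chimeras were exposed 24 h, with 3 nM 6-alpha-fluorotestosterone plus 1.5 nM norgestrel added.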

[13] = system: chicken Androgen Receptor (AR), gene 422165; assay: ATG_chAR_XSP2: Attagene TRANS-FACTORIAL Multi-Species (XSP2) HepG2 Assay for chicken Androgen Receptor (AR) (AID 2283819);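 note: hits raise reporter mRNA above DMSO so potency is for activation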
In short: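 Readout is reporter mRNA induction via RT-PCR/capillary electrophoresis after 24 h chemical exposure, positive direction relative to DMSO. Transiently transfected HepG2 express chimeric chicken AR–GAL4; AR stimulated by 3 nM 6-alpha-fluorotestosterone and 1.5 nM norgestrel.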

[14] = ATG_M_19_XSP2: Attagene TRANS-FACTORIAL Multi-Species (XSP2) HepG2 Assay for M32 Transcription Factor (Internal Marker) (AID 2283822)
In short: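 Internal background marker in a multi-species nuclear receptor TRANS panel: transfected HepG2 cells exposed 24 h, with 3 nM 6-alpha-fluorotestosterone and 1.5 nM norgestrel present. Readout is RT-PCR of reporter transcripts resolved by capillary electrophoresis, gain-of-signal versus DMSO.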

[15] = system: NCBI gene 100848466; assay: NVS_NR_bPR: NovaScreen (NVS) Nuclear Receptor Binding Assay for bovine Progextron Receptor (PR) (AID 2283343);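 note: actives lower bound radioligand signal below DMSO meaning displacement of the label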
In short: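 Steps: bovine uterine membranes were dosed with chemical alongside radioligand, incubated 18 hours, then radiodetected by scintillation counting. Initial testing used 25 uM in duplicate; confirmed actives were rerun as concentration series.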

CN(C)c1ccccc1
outcome [1]: inactive

COc1cc(OC)nc(Sc2cccc(Cl)c2C(=O)O)n1
AC50 [2]: inconclusive: 25 µM
AC50 [1]: inconclusive: 0.0134 µM
outcome [3]: inactive
AC50 [4]: inconclusive: 20 µM
AC50 [5]: inconclusive: 0.00189 µM
outcome [6]: inactive

ClC1=C(Cl)C2(Cl)C3C(Cl)C(Cl)CC3C1(Cl)C2(Cl)Cl (stereo not drawn)
outcome [7]: inactive
outcome [8]: inactive

Clc1cccc(C(Cl)(Cl)Cl)n1
AC50 [9]: inconclusive: 50 µM
AC50 [10]: inconclusive: 37.7 µM
AC50 [3]: inconclusive: 3.34 µM
AC50 [5]: active: 3.97 µM
AC50 [7]: inconclusive: 50 µM

CC(C)(c1cc(Cl)c(O)c(Cl)c1)c1cc(Cl)c(O)c(Cl)c1
AC50 [11]: active: 20.2 µM
AC50 [2]: active: 1.54 µM
AC50 [12]: inconclusive: 100 µM
AC50 [13]: inconclusive: 174 µM
AC50 [14]: inconclusive: 100 µM

c1cc2ccc3cccc4ccc(c1)c2c34
AC50 [1]: inconclusive: 0.000963 µM
AC50 [7]: inconclusive: 92.6 µM
AC50 [12]: inconclusive: 3.2 µM and inconclusive: 5.79 µM
AC50 [13]: inconclusive: 1.47 µM and inconclusive: 100 µM
outcome [14]: inactive

O=C(O)C(F)(F)C(F)(F)C(F)(F)C(F)(F)C(F)(F)C(F)(F)C(F)(F)C(F)(F)C(F)(F)C(F)(F)F
AC50 [11]: inconclusive: 8.46 µM

c1ccc2c(c1)Nc1ccccc1S2
outcome [2]: inactive
AC50 [12]: inconclusive: 6.99 µM and inconclusive: 5.65 µM
AC50 [13]: inconclusive: 35.7 µM and inconclusive: 21.1 µM
AC50 [14]: inconclusive: 100 µM
AC50 [8]: inconclusive: 20 µM

[O-][Cl+2]([O-])O
AC50 [9]: inconclusive: 50 µM

O=C(NCNC(=O)NC1C(=O)NC(=O)N1CO)NC1C(=O)NC(=O)N1CO (stereo not drawn)
AC50 [9]: inconclusive: 50 µM
AC50 [11]: inconclusive: 0.478 µM
AC50 [7]: inconclusive: 0.16 µM

CC(COc1ccc(Oc2ccccc2)cc1)Oc1ccccn1 (stereo not drawn)
AC50 [15]: inconclusive: 25 µM
outcome [2]: inactive
outcome [4]: inactive
AC50 [7]: inconclusive: 50 µM
outcome [6]: inactive
AC50 [8]: inconclusive: 20 µM

CNC(=O)/C=C(\C)OP(=O)(OC)OC
AC50 [2]: inconclusive: 25 µM

Nc1ccc(Cl)cc1N
AC50 [9]: inconclusive: 33.6 µM
AC50 [11]: inconclusive: 25 µM

— PubChem BioAssay (EPA / NIEHS)
